Assay results reported in the supplement of paper PMC12259267, “Disruption of the KLHL37–N-Myc complex restores N-Myc degradation and arrests neuroblastoma growth in mouse models” (The Journal of Clinical Investigation, 2025).
Counter-ions that a name gives are not always drawn. Some of the results follow. Single values are uncertain, as repeats are few or missing.

Each molecule was assayed on SK-N-BE(2) (assay: inhibition of N-Myc immunofluorescence signal per cell relative to control (fraction); higher = stronger N-Myc protein reduction). Details: 1 µM; 9 h.

Row | SMILES | inhibition of N-Myc immunofluorescence signal per cell
1 | CC1=NN(c2ccc(C(=O)O)cc2)C(=O)C1=Cc1ccc(-c2cc(C)c(C)cc2[N+](=O)[O-])o1 | -0.223
2 | O=C(Nc1cccc(Br)c1)c1cccc(S(=O)(=O)N2CCCCCC2)c1 | 0.161
3 | NS(=O)(=O)OC[C@@H]1C[C@@H](n2ccc3c(N[C@H]4CCc5ccccc54)ncnc32)C[C@@H]1O [Pevonedistat] | -0.0553
4 | CCOc1cccc(F)c1C#Cc1cn([C@@H]2O[C@H](CNS(N)(=O)=O)[C@@H](O)[C@H]2O)c2ncnc(N)c12 [TAS4464 (hydrochloride)] | -0.335
5 | c1ccc(-c2ccc(CNCCNCc3ccc(-c4ccccn4)cc3)cc2)nc1 | 0.0224
6 | Fc1ccc(C(CCCNCC2CCc3[nH]c4ccc(F)cc4c3C2)c2ccc(F)cc2)cc1 (stereo not given) | 0.115
7 | COc1cc(Nc2ncc3c(n2)-c2ccc(Cl)cc2C(c2c(F)cccc2OC)=NC3)ccc1C(=O)O [Alisertib (MLN8237)] | 0.176
8 | COC(=O)CNC(=O)C(=O)OC | -0.0134
9 | c1ccc2c(CCNc3ccc(Nc4ccncc4)cc3)c[nH]c2c1 [Serdemetan] | -0.0116
10 | O=C(NCCc1nccs1)c1cnc2c(SSc3cccc4cc(C(=O)NCCc5nccs5)cnc34)cccc2c1 [Capzimin] | -0.00964
11 | COC(=O)[C@H](CCSC)NC(=O)c1ccc(CNCc2cnc[nH]2)cc1-c1ccccc1C | 0.0563
12 | Clc1cc2c(NC3CCCC3)nnc(-c3ccncc3)c2cc1Cl | -0.108
13 | NC(=O)N1CCC(CC(=O)N2CCC([C@H]3c4ncc(Br)cc4CCc4cc(Cl)cc(Br)c43)CC2)CC1 [Lonafarnib] | 0.0697
14 | Cn1cc(/C=C/C(=O)c2cccc(F)c2)cc1/C=C/C(=O)NO | 0.0357
15 | CCN1C(=O)C=CC1=O [N-Ethylmaleimide] | -0.0245
16 | O=C1CCC(N2Cc3cc(O)ccc3C2=O)C(=O)N1 (stereo not given) [Lenalidomide-OH] | 0.122
17 | O=c1cc(-c2ccc(O)c(O)c2O)oc2ccccc12 | 0.0963
18 | O=C1CC(=O)c2c(Cl)c(Cl)c(Cl)c(Cl)c21 | 0.00769

Individual results from the entries so far.
Fc1ccc(C(CCCNCC2CCc3[nH]c4ccc(F)cc4c3C2)c2ccc(F)cc2)cc1 (stereo not given) | inhibition of N-Myc immunofluorescence signal per cell: 0.115
CCN1C(=O)C=CC1=O [N-Ethylmaleimide] | inhibition of N-Myc immunofluorescence signal per cell: -0.0245

Next part.

Row | SMILES | inhibition of N-Myc immunofluorescence signal per cell
19 | O=C(NO)c1cnc(NC2(c3ccccc3)CC2)nc1 | -0.289
20 | O=c1c(-n2ccnn2)c[nH]n1-c1cc(N2CCOCC2)ncn1 [Molidustat] | 0.0447
21 | CCCc1cc(C)[nH]c(=O)c1CNC(=O)c1cc(-c2ccc(N3CCN(C)CC3)nc2)nc2c1cnn2C(C)C | -0.375
22 | O=C1c2ccccc2C(=O)c2oc(-c3cccnc3)nc21 | 0.256
23 | O=C[C@@H](O)[C@@H](O)[C@H](O)[C@H](O)CO [D-Mannose] | -0.182
24 | Nc1nc(COC(=O)c2ccc([N+](=O)[O-])cc2)nc(Nc2ccccc2)n1 | 0.217
25 | Cc1cc2c(C(N)=O)cccc2n1-c1nc2c(c(NCc3ccccc3)n1)COCC2 | 0.152
26 | C[C@]1(c2nc3c(C(N)=O)cccc3[nH]2)CCCN1 [Veliparib] | 0.0869
27 | O=C(CCl)Nc1cccc(NC2=NS(=O)(=O)c3ccccc32)c1 | -0.122
28 | c1ccc(CNc2nc(NCc3ccccc3)c3ccccc3n2)cc1 | -0.197
29 | O=C(O)/C(S)=C/c1ccc(I)cc1 | 0.246
30 | Cn1cc(-c2ccc(S(=O)(=O)n3ccc(/C=C/C(=O)Nc4ccccc4N)c3)cc2)cn1 [Domatinostat] | 0.292
31 | O=C(O)c1cnn(-c2nc3cc(OC(F)(F)F)c(Cl)cc3[nH]2)c1 | -0.3
32 | CC(C)(C)C(=O)Nc1ccc2c(c1)C(=O)C(=O)c1ccccc1-2 | -0.0559
33 | CCCCNNC(=O)c1ccc(Br)cc1 | -0.157
34 | CCc1cc2c(=O)c(-c3nc4ccccc4s3)coc2c(CN2CCCCC2)c1O | -0.00635
35 | Cc1cn(CCN2CCN(c3ccccc3-c3cc(C#N)cc(C(=O)NCCCN4CCCC4)c3)CC2)c2ccccc12 | -0.216
